{"source": "patent US9636319B1", "about": "“Fumarate ester dosage forms” (priority 2015, dated 2017)", "origin": "cited, not measured here", "tested_on": "Nuclear factor (erythroid-derived 2)-like 2 (Nrf2) pathway", "settings": "in vitro and in vivo in animals and humans", "note": "Where a name gives a salt, the structure may show the parent alone. At least one structure is not confirmed: it was looked up by name or label, or the drawing left a doubt."}
{"smiles": "COC(=O)/C=C/C(=O)O", "note": "[MMF, monomethyl fumarate]", "values": [{"measurement": "Nrf2 pathway activation", "value": "activate"}]}
